No constants are given. Whether binding was seen depends on the method and setting. For part of these data: Binding seen in cells or lysates may run through a third protein. Some results given as binding are weak or reduced against the parent protein; the word gives no strength. For part of these data: Tags and fused reporters may be left off the sequences shown.
What was measured:
[1] = target: HA-tagged C4 (Vaccinia virus strain Western Reserve) (UniProt P17370); test: co-IP
[2] = target: FLNB R22–24 dimerization-deficient mutant (M2544E, L2546D), His6-tagged (human) (UniProt O75369)

HA-tagged C4 (from UniProt P17370 1-316)
binding [1]: binds

endogenous Ku heterodimer (Ku70 and Ku80) (from UniProt P12956 1-609; P13010 1-732) (complex)
binding [1]: binds

B1: FLNB R22–24 dimerization-deficient mutant (M2544E, L2546D), His6-tagged (domain or fragment, UniProt O75369 2282-2601)
chain: APSDDARRLTVMSLQESGLKVNQPASFAIRLNGAKGKIDAKVHSPSGAVEECHVSELEPDKYAVRFIPHENGVHTIDVKFNGSHVVGSPFKVRVGEPGQAGNPALVSAYGTGLEGGTTGIQSEFFINTTRAGPGTLSVTIEGPSKVKMDCQETPEGYKVMYTPMAPGNYLISVKYGGPNHIVGSPFKAKVTGQRLVSPGSANETSSILVESVTRSSTETCYSAIPKASSDASKVTSKGAGLSKAFVGQKSSFLVDCSKAGSNELDIGVHGPTTPCEEVSMKHVGNQQYNVTYVVKERGDYVLAVKWGEEHIPGSPFHVTV
binding [2]: no binding (tested: 100 µL protein at 1 mg/mL)

Source: publication PMC10949515 (Journal of Virology, 2024)
